# From patent US11505581B2, “Antigens and T cell epitopes from cockroach and methods of making and using same” (La Jolla Institute for Allergy and Immunology, priority 2015, dated 2022)
# Test system: PBMC
# Experiment: ELISPOT (IFNγ, IL-5, IL-10, IL-17, IL-21) of PBMC expanded 14 days with Bla g extract, then stimulated with peptides or peptide pools
# Type: cell-based, human
# Parameters: key to Average Magnitude of Response: spot forming cells (SFC) per 10^6 PBMC; Response Rate per Subject: unit not given here
# Settings: non-redundant epitopes; sensitized donors
# Procedure: PBMC Isolation and Cell Cultures: PBMC (peripheral blood mononuclear cells) were isolated from 450 mL (one unit) of blood by density gradient centrifugation as described and cryopreserved. For in vitro expansion of PBMC for peptide screening, cells were cultured in RPMI1640 (Omega Scientific)+5% human AB serum (Gemini Bioscience), GlutaMAX (Gibco), and penicillin/streptomycin (Omega Scientific) at 2×10^6 per mL, stimulated with 10 ug/mL Bla g extract (Greer), and incubated at 37° C. in 5% CO2. Every three days, IL-2 and IL-7 (10 U/mL) were added to the cultures. Cells were harvested for peptide screening at day 14.
# ELISPOT Assays: Production of IFNγ, IL-5, IL-17, IL-10, and IL-21 (as representative of TH1, TH2, TH17, TR1, and […], respectively) in response to peptide stimulation was measured by ELISPOT as described previously. […]
# To assess T cell reactivity, we utilized a strategy applied to the definition of epitopes from various allergen sources^15,16 utilizing in vitro stimulation with allergen extracts. […] As readout, we utilized ELISPOT assays specific for IL-5, IFNγ, IL-10, IL-17 and IL-21, chosen as representative of TH2, TH1, TR1, TH17 and TFH reactivity, respectively.
sequence,measurement,value
DLVANQPNLKALREK (listed as Blattella germanica),Average Magnitude of Response,91.0
same,Response Rate per Subject,7.1
